The whole screen tested about 52,000 sequences, of which about 210 (0.4%) were called active.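 The calls were made as follows: active = gene whose silencing raises cell survival under the drug, median off-target-corrected z-score across its silencing RNAs 2 or more; inactive = the rest.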 Some of the results follow.

A short description of this test: Resistance to Poly (ADP-Ribose) Polymerase inhibitor: Gene Identification via Genome-wide siRNA Screen. Conditions: mouse BRCA2 R2336H ES cells, olaparib, CellTiter-Glo viability; active compounds read high. The essentials: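 Mouse BRCA2 R2336H ES cells were reverse-transfected with siRNA (20 nM final), treated at 48 h with 500 nM olaparib, and read by CellTiter-Glo after 72 h. Scores: MAD-based z per siRNA, median per gene, seed off-target correction.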
(In general: In ATP-based viability assays light output follows the ATP content of the culture.)
For GGACCGUCUGUCCUUUGUCTT against Pvrl2, the z-score was inactive: 0.0366.
Next, GGACAUAAUCAAAUACAACTT against Eif3s3: inactive: -1.88; “CCAUUCUAGCUGGUUCGAATT against D12Ertd647e”: inactive: -0.025; GUCAGAUGCUGUAAGAUAATT against Defb4: inactive: 1.27.
Take CCUCAGUAUCUGUUUUCCGTT against Gnat2: the z-score was inactive: 1.22.
Next, GGAAGUCCAACUUCUUCCATT against Ebf4: inactive: 0.771; GCCUGACCACCAACUUAUATT against Mast1: inactive: 1.16.
For GGAGGAAAUAUGUUAACUATT against Atp6ap2, the z-score is inactive: -0.701.
With GGUCCUGGACAAGAGCAGUTT against Bcl11b, the z-score is inactive: -1.3.
GCCUGGUGUUGUGCUAUUUTT against Atf3: the z-score is inactive: -0.662.
For GGAUGAUGAGAGAAACAAATT against Jak1 the value was active: 2.1; for GGAUGUGUAGUGCAAUUACTT against Olfr993, inactive: -0.246; for GGGCCUCCAUCCUACUAUGTT against Grina, inactive: -0.361.
As to GGUUUUACCCGGUAAGUCCTT against Bcan, the z-score was inactive: 1.11.
For GGUAGACAUUCCUAAGCCCTT against Ddx21 the value was inactive: -0.207.
Next, GAUCAAAGAAACUCCUCCCTT against Zfp50: inactive: 0.591; GGCUCUGUGACCAAGAUUUTT against Rtcd1: inactive: 1.14.
For CGAAGUGAGAAUUGAAUUUTT against Zp2 the value was inactive: 0.791; for GGUGACGGCUACACUUUUCTT against Adrbk2, inactive: 2.24; for GGAUUCAUUUUGUGAGUGATT against Pax8, inactive: 0.531.
Turning to “GGAGGGCUCACAUUGUACATT against D130011D22Rik”, the z-score is inactive: -0.484.
For GGGUCAAAGCAGAAAAAUCTT against S100a18 the value was inactive: -0.308; for GCUCAAGUCGAAAAGUUGCTT against Gpc4, inactive: -0.138.
Next, “UCCAUUUCGACCCUUGUACTT against 2010100O12Rik”: inactive: -0.516; GGAGAAGCAUUAUUUUGAATT against Myb: inactive: -0.653; CCAUUGCAUGCAAUGACUATT against S100a10: inactive: -0.647.
Next, GGCCUUGAGGCUAUUCAUGTT against Stk16: inactive: 0.0229.
On to GGAGAAAAGGAAGUAAACUTT against Aldh9a1, for which the z-score was inactive: 2.32.
For CGACAAACACCGUAGCAAATT against Mkl2 the value was inactive: 2.27; for GGAGGAAGAAGUAGUACUUTT against Nup43, inactive: -0.855; for GGAGAUCCUUCAUUACCUGTT against Psap, inactive: -0.239.
Consider CCUACCAGUACCUAGAACUTT against Slc5a5, for which the z-score was inactive: -0.472.
Next, GCCAAUGAGACUAAAUACGTT against Abca17: inactive: -0.628; CCAAACCUGAGACCUAUUGTT against Lamb3: inactive: -0.652; “CGACUAUAGACUCUUGAAUTT against 1810037I17Rik”: inactive: -0.75.
Next, “GCUAAUCUGAGAAACAGGCTT against 2310002B06Rik”: inactive: -0.161.
Next, AGAGCAAAAACUCGAGCACTT against Sox15: inactive: 1.28.
In the case of “GCGAAUUGAGCUCAAACAUTT against 5830435K17Rik”, the z-score is inactive: 2.38.
Turning to GGUGACGAGACAUUUAUUATT against Elovl5, the z-score was inactive: 0.954.
Consider CCAAUCUUCACAAUGGCUCTT against Smpd1, for which the z-score was inactive: 2.9.
Next, CGCAGCAUUGUUAGAUAUUTT against Adss2: inactive: -0.471.
“GGGAGGAGUCAUUCAUGAGTT against D11Ertd636e”: the z-score is inactive: 1.07.
For GGAAAUAAUGACCAAGUACTT against Gprk5 the value was inactive: -1.61.
For “GCUUGUAAAUGGAACGACATT against 0610012G03Rik” the value was inactive: 0.781.
On to GGGUUCAUUUCUCAAAAUUTT against Nol7, for which the z-score was inactive: 1.09.
For GGGCAAAUUAUGCUGUCAUTT against Tomm20, the z-score is inactive: -0.851.
Turning to “CCAGUCUACAACUGUUCCUTT against E230022H04Rik”, the z-score is inactive: -1.28.
Next, GGCAUAAUGUGAAAAAAUGTT against P2ry10: inactive: 0.836.
For “GCAAUAGCAUACCUACCAUTT against 5830417C01Rik” the value was inactive: -0.113.
As to GGUGGUUUUGAGAAUUAACTT against Hist1h1d, the z-score was inactive: 0.716.
Next, GGGUUUCAAUGGCACAAUUTT against Kif3b: inactive: 1.33; GGUGCGUUAUGGGUUUGUUTT against Ppm1b: inactive: -1.01; GCUAAGCUAAAUUAAAUGCTT against Rp2h: inactive: 0.487.
Turning to GGACAUUUUCUACGUUGAATT against Phax, the z-score was inactive: -2.15.
For GCUGUUUUGGUAGAUUUUGTT against Map3k8 the value was inactive: 1.3.
With GGUUUGUGGUGGUAUUUAATT against Man2a2, the z-score is inactive: -2.18.
For the sequence “CCGUCUGGUACAACAUGAUTT against 2610529H08Rik”, the z-score is inactive: 0.171.
For GGUCGAUUGAUAUACAAAATT against Gdf6 the value was inactive: -0.599.
For “GCCAAAAACGAUGAAAUGUTT against D14Ertd668e” the value was inactive: -0.814; for GGACAACUUCAACAGCACUTT against Rab13, inactive: 0.41.
Consider GGUUAAAUAUGUAAACCACTT against Slco2b1, for which the z-score was inactive: -0.936.
Next, CGCAUAAUGGAUGAGAGGATT against Mef2a: inactive: 0.945; GGAUUCUCCGCACAGUUGGTT against BC026744: inactive: -1.23.
Next, CCCUCUUGAAAUUAGUGUGTT against Dusp14: inactive: 0.76.
Next, GGACCAGCCAUACCUGUGATT against Ndufa7: inactive: -2.1; GGAUGUGUCUCUGGAACAUTT against Cdc37l1: inactive: -1.34; GGUGUUUGGCGAUAAUAAGTT against Zdhhc15: inactive: -0.212.
GGGUCCUUUUUAGCUGUAGTT against Vdac1: the z-score is inactive: 0.889.
For AAAAAGGUGUCACCUUUCUTT against Gm1961 the value was inactive: -0.149; for “CCCGUAUGGAUGUGGUAACTT against 4933425O20Rik”, inactive: -2.22.
Next, “GGAGAGAACUGAUGAAUCCTT against 0610038F07Rik”: inactive: 0.46; “GGUUAAACUACAACAGUUGTT against 1700095F04Rik”: inactive: 1.49.
For CCGCCGUUCCUUUUGUUUCTT against Sox21 the value was inactive: 0.733.
With GCGCAGUCAGACCAUAUAUTT against Fbxl5, the z-score is inactive: -1.2.
For “CCUCUUGGUCGAAUUAUUATT against A630042L21Rik” the value was inactive: 0.377; for CGGUAUGUAAAUCUAUCACTT against Kctd4, inactive: -0.136.
For the sequence “CCCUGAGAUAGGCAAUGUGTT against 6330404A07Rik”, the z-score was inactive: -1.06.
For CCUCUUAAAACAAUACCAATT against Olr1 the value was inactive: 0.365; for GGAAAACCUAGAAGAUAAUTT against Syt14l, inactive: 0.82.
Turning to CCGAGUUCGGGUAUCUUGGTT against Grwd1, the z-score is inactive: -0.802.
Next, GGCUUUUUGUGUAUUUGUUTT against Evi5: inactive: -0.659; GGCAUACUUGUACCGCUAUTT against Mmp9: inactive: 0.199.
Next, GGUUAUCGCAUUUGGUGGUTT against Olfr1511: inactive: -0.0472.
For CCACAAAACUAAGACACCUTT against P2ry6 the value was inactive: 0.181.
Regarding GGAAUACGCAGUGAAAAUCTT against Phkg1, the z-score was inactive: -0.0338.
For “GCCAACUCAGUUUUGAAUGTT against 4930404J24Rik” the value was inactive: -0.142; for “GCCAGGAUAUGGAUAUGCATT against 1520401A03Rik”, inactive: 1.47.
For CCAAGGAGACUCAUCAACATT against Crebbp the value was inactive: 2.08; for GCUCAAUUGUGGAGCAGUCTT against Cd5l, inactive: 0.193; for GGUAAAACAUUGUUUAGACTT against Crk7, inactive: -0.145.
Next, CCUACUUGGGAAAGUUCGCTT against Egr3: inactive: 0.719.
Consider CCUAGCAGACUUUAACCAATT against Ptk2, for which the z-score is inactive: -0.778.
Next, “GGUAUCAGAGCUGUGUUCUTT against C530044N13Rik”: inactive: -0.83; GGGUAGAUAGAUGUUCAGGTT against LOC434285: inactive: -0.21.
Next, GGAUUACCGGCAGCUGGAATT against Dnm1: inactive: 2.09; GCUAGAGAAAAAACAGCCATT against Csf2rb1: inactive: 0.652; CGUUCCAGGUGAAGAUCCUTT against Tbx10: inactive: -0.102.
For the sequence “GCCUGAGUCAUCCUCCAAATT against A630035I11Rik”, the z-score was inactive: -1.89.
For “GGCCAACUCUAUUUUGAAGTT against 2310006J04Rik” the value was inactive: 1.34; for GCUAUAUAAAAGAACCGAUTT against Daxx, inactive: 0.706.
Take CCCAGUCCUAAGGUUCAGATT against Armcx2: the z-score is inactive: -0.247.
With GCAGAAAGAAACGUAAAUGTT against AW494914, the z-score was inactive: 0.58.
As for GGUGGCGGGAGAUGUUUUUTT against Pex6, the z-score is inactive: 0.391.
For GGACAAGUUUCGGAGAAUGTT against Kirrel3 the value was inactive: -1.89.

The values above are taken from PubChem BioAssay AID1347423 (Functional Genomics Laboratory (NCATS/FGL), 2020).
